Measurements from PubChem BioAssay AID540276 (National Center for Advancing Translational Sciences (NCATS), 2011).
Values joined by “and” are separate entries in the source; they are usually repeats but may differ in a detail not shown here. Equal entries are not always repeated. The whole screen tested about 300,000 compounds, of which about 5,400 (1.8%) were called active. Inconclusive means that the source gave no clear call. Such entries were picked first, then a sample of the others. Calls follow the shape of the full dose curve; tested in HEK293 cells. Where the call is inconclusive, the potency comes from a doubtful curve fit.
% is scaled to controls: 0 for no effect and ±100 for the full control effect; potency is read from the fitted curve at half-maximal effect.

Experiment: qHTS for inhibitors of binding or entry into cells for Marburg Virus
Conditions: Marburg virus pseudotyped entry inhibition, cell reporter; activity change, negative = inhibition: at 37.8 µM (top of the series) unless noted
For `COc1ccc2nc(Nc3nc4cc5c(cc4s3)OCO5)sc2c1`, the Potency was inconclusive: 0.562 µM [inhibitor, partial curve, poor fit].
For `COc1ccc(CN2CCN(C(=O)C3CCC(CNS(=O)(=O)c4ccccc4)CC3)CC2)c(OC)c1OC` (stereo unspecified), the Potency was inconclusive: 35.5 µM [inhibitor, partial curve, poor fit].
With `O=C1N(c2ccccc2)C2CS(=O)(=O)CC2N1c1ccc(Br)cc1` (stereo unspecified) the “activity change, negative = inhibition” value was inactive: -3.32%.
For `CC(=O)c1sc(NCc2ccccc2)nc1C`, the “activity change, negative = inhibition” value was inactive: 16.2% [at 46.1 µM].
For `Nc1nc(OCc2ccccc2)c2[nH]cnc2n1`, the Potency was “inactive and inconclusive: 4.11 µM [inhibitor, single point]”.
In the case of `Cc1cccc(N2CCN(C(c3ccccc3)c3nnnn3C(C)(C)C)CC2)c1C` (stereo unspecified), the Potency is reported as inconclusive: 29.1 µM [inhibitor, partial curve, poor fit].
In the case of `COC(=O)CNC(c1ccccc1)c1cc(Br)ccc1NC(=O)CNC(=O)OCc1ccccc1` (stereo unspecified), the Potency is reported as inconclusive: 35.5 µM [inhibitor, single point].
With `O=C(O)C1Nc2c(O)cccc2C2C=CCC12` (stereo unspecified) the Potency was inconclusive: 15.8 µM [inhibitor, partial curve, poor fit].
For `CCOC(=O)c1cnc2ccc(C)cc2c1N(C)Cc1ccccc1`, the Potency was inconclusive: 8.91 µM [inhibitor, partial curve, poor fit].
In the case of `COc1ccc(NC(=S)NCc2ccco2)cc1`, the “activity change, negative = inhibition” value is reported as inactive: 2.08%.
In the case of `Cc1ccc(CN2CCSc3ccc(C(=O)N4CCN(c5ncccn5)CC4)cc32)cc1`, the Potency is reported as inconclusive: 20.6 µM [inhibitor, single point].
In the case of `CC(C)(C)c1nnc(NC(=S)Nc2ccccc2)s1`, the Potency is reported as inconclusive: 0.891 µM [activator, partial curve, poor fit].
For `Cc1cc(C(=O)CN2C(=O)C(=O)N(CC(C)C)C2=O)c(C)n1C1CC1`, the Potency was inconclusive: 31.6 µM [activator, single point].
For `Cc1ccc(C(C(=O)NC2CCCCC2)N2CCC3(CC2)OCCO3)cc1` (stereo unspecified), the Potency was inconclusive: 35.5 µM [inhibitor, single point].
For `O=C(NC(NC(=S)Nc1c(Cl)cccc1Cl)C(Cl)(Cl)Cl)c1cccc([N+](=O)[O-])c1` (stereo unspecified), the Potency was inconclusive: 16.4 µM [inhibitor, single point].
With `Cc1ccc(N/C(SCc2ccccc2C)=C(/C#N)C(=O)NCc2ccco2)cc1C` the Potency was inconclusive: 18.3 µM [inhibitor, partial curve].
With `O=C(OCC1OC2C(Oc3nc(=O)ccn32)C1O)c1ccccc1` (stereo unspecified) the “activity change, negative = inhibition” value was inactive: -5.85%.
For `CC(N)Cc1cn(Cc2ccccc2)c2ccccc12` (stereo unspecified), the Potency was inconclusive: 15.8 µM [inhibitor, single point].
In the case of `O=C(Nc1cccc(C(=O)O)c1)/C(=C\c1ccco1)NC(=O)c1ccccc1`, the Potency is reported as inconclusive: 11.2 µM [inhibitor, partial curve, poor fit].
With `C/C(=N\NC(=O)c1ccc(CN2CCOCC2)cc1)c1ccc(NC(=O)c2ccccc2)cc1` the Potency was inconclusive: 3.16 µM [activator, partial curve, poor fit].
With `Cc1ccc(NC(=O)c2ccccc2Br)cc1S(=O)(=O)N(C)C` the Potency was inconclusive: 6.31 µM [activator, single point].
With `COc1ccc(S(=O)(=O)N2CCOC2CNC(=O)C(=O)NCCc2c[nH]c3ccccc23)cc1C` (stereo unspecified) the Potency was inconclusive: 20.6 µM [inhibitor, single point].
In the case of `O=C(NCC1CCCO1)C1CC(=O)N(c2ccc(Cl)cc2)C1` (stereo unspecified), the Potency is reported as inconclusive: 25.1 µM [inhibitor, single point].
In the case of `COc1ccc2c(c1)[nH]c1c(N3CCN(Cc4ccc5c(c4)OCO5)CC3)ncnc12`, the Potency is reported as “inactive and inconclusive: 2.82 µM [inhibitor, full curve, poor fit]”.
In the case of `Cc1cc(C)c(NC(=O)c2cc3sc(Cl)cc3n2C)c(C)c1`, the Potency is reported as inconclusive: 3.55 µM [inhibitor, single point].
With `COc1cccc(NC(=O)CSc2ncc(S(=O)(=O)c3ccc(C)c(C)c3)c(=O)[nH]2)c1` the “activity change, negative = inhibition” value was inactive: 29.5% [at 46.1 µM].
For `c1cncc(CSc2ccc(-c3ccc4c(c3)OCO4)nn2)c1`, the Potency was inconclusive: 11.2 µM [inhibitor, partial curve, poor fit].
In the case of `O=C(COc1ccc2ccccc2c1)N1c2ccccc2Sc2ccccc21`, the Potency is reported as inconclusive: 20.6 µM [inhibitor, single point].
In the case of `Cc1ccc(CN(C)C(=O)c2cc(S(=O)(=O)N3CCOCC3)ccc2F)o1`, the Potency is reported as inconclusive: 6.31 µM [inhibitor, single point].
In the case of `Cc1ccc(S(=O)(=O)NNC2=NCCCCC2)cc1`, the activity change, negative = inhibition is reported as inconclusive: 56% [activator] [at 46.1 µM].
With `O=C1CC(N2CCc3ccccc32)C(=O)N1c1ccccc1` (stereo unspecified) the Potency was inconclusive: 22.4 µM [activator, single point].
With `Cc1cc(NC(=O)CCN2C(=O)C3C4C=CC(C4)C3C2=O)c2ccccc2n1` (stereo unspecified) the Potency was inconclusive: 5.62 µM [activator, single point].
With `CCCCn1c(C(C)NC(=O)COC)nc2ccccc21` (stereo unspecified) the “activity change, negative = inhibition” value was inactive: -19.1%.
With `Cc1cc(C)n(C(C)CNS(=O)(=O)c2ccc(Cl)cc2)n1` (stereo unspecified) the “activity change, negative = inhibition” value was inactive: 0.059% [at 46.1 µM].
With `Cc1cc(C)c(NC(=O)COC(=O)C2CCC(=O)N2)c(C)c1` (stereo unspecified) the Potency was inconclusive: 3.16 µM [activator, single point].
For `Cc1csc(C(C#N)C(=O)c2cc3ccccc3o2)n1` (stereo unspecified), the Potency was inconclusive: 13 µM [inhibitor, partial curve, poor fit].
With `O=C(c1cccs1)N1CCc2c([nH]c3ccccc23)C1c1ccc(Cl)cc1` (stereo unspecified) the Potency was inconclusive: 6.31 µM [inhibitor, full curve, poor fit].
With `CC(=O)Nc1ccc(C2Sc3ccccc3NC3=C2C(=O)c2ccccc23)cc1` (stereo unspecified) the Potency was inconclusive: 0.631 µM [activator, full curve, poor fit].
With `Clc1ccc(COc2ccccc2CNCc2cccnc2)cc1` the Potency was inconclusive: 29.1 µM [inhibitor, single point].
For `CN1CCN(CCOc2ccc(Cc3ccccc3)cc2)CC1`, the Potency was inconclusive: 10 µM [inhibitor, partial curve, poor fit].
In the case of `O=C(/C=C/c1cccc(F)c1)N1CCc2ccccc21`, the Potency is reported as inconclusive: 1.3 µM [activator, partial curve, poor fit].
With `Cc1ccc(C)c(CN2C(=O)c3ccccc3S(=O)(=O)c3ccc(C(=O)N4CCCCCC4)cc32)c1` the Potency was inconclusive: 20 µM [inhibitor, single point].
With `CC(C)(O)/C=C/C(=O)C(C)(O)C1C(O)CC2(C)C3CC=C4C(C=C(O)C(=O)C4(C)C)C3(C)C(=O)CC12C` (stereo unspecified) the Potency was active: 0.112 µM.
For `CCN1CCN(CC(=O)N2N=C(c3cccs3)CC2c2ccc(F)cc2)C(=O)C1=O` (stereo unspecified), the “activity change, negative = inhibition” value was inactive: 6.97%.
In the case of `CCCNc1nc(C)nc2c1cnn2CCc1ccccc1`, the “activity change, negative = inhibition” value is reported as inactive: 22.8%.
In the case of `CCCC1CCC(=NNC(=O)OC(C)(C)C)CC1` (stereo unspecified), the “activity change, negative = inhibition” value is reported as inactive: 3.04%.
In the case of `COc1cc2oc(=O)c(CC(=O)N3CCCCC3)c(C)c2cc1Cl`, the Potency is reported as inconclusive: 6.31 µM [inhibitor, single point].
For `COc1ccc(C)cc1S(=O)(=O)N1CCN(c2cccc(Cl)c2)CC1`, the “activity change, negative = inhibition” value was inactive: -36% [at 46.1 µM].
For `O=C(CSc1nc2ccccc2o1)N1c2ccccc2Sc2ccc(Cl)cc21`, the Potency was inconclusive: 29.1 µM [inhibitor, single point].
For `Cc1cccc(N(CC(=O)NC2CCCC2)C(=O)c2cc3cc4cccc(C)c4nc3s2)c1C`, the Potency was inconclusive: 16.4 µM [inhibitor, partial curve, poor fit].
For `N/C(=N\OC(=O)c1cccc(Br)c1)c1ccncc1`, the “activity change, negative = inhibition” value was inactive: -19% [at 46.1 µM].
In the case of `COP(=O)(OC)/C(C=O)=N/Nc1ccc([N+](=O)[O-])cc1`, the “activity change, negative = inhibition” value is reported as inactive: 10.3% [at 46.1 µM].
For `CNCCCc1ccccc1`, the Potency was inconclusive: 35.5 µM [activator, partial curve, poor fit].
For `CN1Cc2cccnc2N(C)Cc2cc(Cl)ccc21`, the Potency was inconclusive: 12.6 µM [inhibitor, partial curve, poor fit].
With `S=C(c1ccc2c(c1)OCO2)N1CCN(c2cccc(Cl)c2)CC1` the Potency was inconclusive: 2 µM [inhibitor, full curve].
With `CN(c1ccc(F)cc1)S(=O)(=O)c1ccc(Cl)c(C(=O)NCC2CCCO2)c1` (stereo unspecified) the “activity change, negative = inhibition” value was inactive: -0.639%.
In the case of `CCOc1cc(/C=C/c2cc(C(=O)O)c3ccccc3n2)ccc1OC`, the Potency is reported as inconclusive: 35.5 µM [inhibitor, single point].
In the case of `O=C(NCCN1C(=O)S/C(=C\c2cccnc2)C1=O)C1=NN(c2ccccc2)C(=O)CC1`, the “activity change, negative = inhibition” value is reported as inactive: 1.15% [at 46.1 µM].
In the case of `O=S(=O)(NC1CCCCC1Nc1ccc(Cl)cc1)c1ccccc1` (stereo unspecified), the Potency is reported as inconclusive: 35.5 µM [inhibitor, partial curve, poor fit].
For `CNC(=O)c1ccccc1-c1cn(C)c2ccccc2c1=O`, the Potency was inconclusive: 35.5 µM [activator, partial curve, poor fit].
In the case of `CN1CCN(c2nc(N3CCN(c4ccccc4)CC3)ncc2F)CC1`, the Potency is reported as inconclusive: 20.6 µM [inhibitor, partial curve].
With `COc1ccc(C(=O)CSc2nc(=O)n(Cc3cccnc3)c3c2CCC3)cc1` the “activity change, negative = inhibition” value was inactive: 0.599%.
For `Cc1cc(S(=O)(=O)Nc2ccc3cn[nH]c3c2)c(C)cc1Cl`, the Potency was inconclusive: 12.6 µM [inhibitor, partial curve, poor fit].
With `CC(=O)Nc1ccc2oc(-c3ccccc3Br)nc2c1` the Potency was inconclusive: 20 µM [inhibitor, single point].
In the case of `Clc1ccc(-c2cc(C3CCNCC3)[nH]n2)c(Cl)c1`, the Potency is reported as inconclusive: 3.98 µM [inhibitor, partial curve, poor fit].
For `O=[N+]([O-])c1ccc(O)c(C(C#Cc2ccccc2)N2CCOCC2)c1` (stereo unspecified), the Potency was inconclusive: 15.8 µM [inhibitor, partial curve, poor fit].
